For at least one compound, name, drawing or mass did not settle the structure.
System: MRSA
Experiment: MRSA CFU counts on agar with rifampin or tetracycline after sub-lethal NIMELS laser (Example IX)
Assay type: cell-based, Staphylococcus aureus

CN(C)[C@@H]1C(O)=C(C(N)=O)C(=O)[C@@]2(O)C(O)=C3C(=O)c4c(O)cccc4[C@@](C)(O)[C@H]3C[C@@H]12 [Tetracycline]
effect of sub-lethal NIMELS on antibiotic resistance of MRSA (in words) (sub-lethal laser parameters, tetracycline 4 ug/ml): resistance to tetracycline is being reversed
reversal of MRSA resistance in vitro by dual wavelength NOVEON laser (in words) (temperature levels not lethal to the organism): successful reversal of MRSA resistance
